PubChem BioAssay AID1224830, NIAID – 2016
Here is a random part of about 18,000 deposited reagents. Of all reagents, about 2,900 (16%) are marked active. 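Calls are made per well; low scores hint the gene aids the LPS response, high scores that it dampens it.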 Repeated entries: four replicate wells of each siRNA pool.

Aim: 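Genes whose knock-down alters the TNF-alpha reporter response to LPS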 (primary screen)
System: human THP-1 monocytic leukaemia cells, TNF dual-luciferase reporter clone, PMA-differentiated to macrophage-like cells
Knock-down reagent: siRNA pool against human genes, 50 nM
Duration: LPS for 4 h, given about 3 days after siRNA transfection
Treatment: bacterial LPS (TLR4 ligand), 10 ng/ml
Measured: 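Ratio of firefly to renilla light, scaled to the plate median and expressed as a robust z-score per replicate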
Direction: TNF reporter robust z-score: higher = stronger TNF reporter response to LPS
Active means: 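Each well counts as active if its z-score is over 2.8 or under -1.5; controls are left without a call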

The opening 16 records as a preview:
| target | PubChem SID | TNF reporter robust z-score | outcome |
| --- | --- | --- | --- |
| TNFRSF10C (TNF receptor superfamily member 10c) | SID315452824 | 0.05 | inactive |
| TNFRSF10C (TNF receptor superfamily member 10c) | SID315452824 | -0.87 | inactive |
| TNFRSF10C (TNF receptor superfamily member 10c) | SID315452824 | -1.11 | inactive |
| TNFRSF10C (TNF receptor superfamily member 10c) | SID315452824 | 0.23 | inactive |
| RNF146 (ring finger protein 146) | SID315459956 | -1.43 | inactive |
| RNF146 (ring finger protein 146) | SID315459956 | 0.39 | inactive |
| RNF146 (ring finger protein 146) | SID315459956 | -0.37 | inactive |
| RNF146 (ring finger protein 146) | SID315459956 | 1.77 | inactive |
| UCP2 (uncoupling protein 2) | SID315452059 | -0.25 | inactive |
| UCP2 (uncoupling protein 2) | SID315452059 | -0.27 | inactive |
| UCP2 (uncoupling protein 2) | SID315452059 | -0.73 | inactive |
| UCP2 (uncoupling protein 2) | SID315452059 | 0.21 | inactive |
| C14orf180 (chromosome 14 open reading frame 180) | SID315464737 | -1.03 | inactive |
| C14orf180 (chromosome 14 open reading frame 180) | SID315464737 | -0.74 | inactive |
| C14orf180 (chromosome 14 open reading frame 180) | SID315464737 | -1.22 | inactive |
| C14orf180 (chromosome 14 open reading frame 180) | SID315464737 | -0.87 | inactive |

Main list, from the start:
| target | PubChem SID | TNF reporter robust z-score | outcome |
| --- | --- | --- | --- |
| TNFRSF10C (TNF receptor superfamily member 10c) | SID315452824 | 0.05 | inactive |
| TNFRSF10C (TNF receptor superfamily member 10c) | SID315452824 | -0.87 | inactive |
| TNFRSF10C (TNF receptor superfamily member 10c) | SID315452824 | -1.11 | inactive |
| TNFRSF10C (TNF receptor superfamily member 10c) | SID315452824 | 0.23 | inactive |
| RNF146 (ring finger protein 146) | SID315459956 | -1.43 | inactive |
| RNF146 (ring finger protein 146) | SID315459956 | 0.39 | inactive |
| RNF146 (ring finger protein 146) | SID315459956 | -0.37 | inactive |
| RNF146 (ring finger protein 146) | SID315459956 | 1.77 | inactive |
| UCP2 (uncoupling protein 2) | SID315452059 | -0.25 | inactive |
| UCP2 (uncoupling protein 2) | SID315452059 | -0.27 | inactive |
| UCP2 (uncoupling protein 2) | SID315452059 | -0.73 | inactive |
| UCP2 (uncoupling protein 2) | SID315452059 | 0.21 | inactive |
| C14orf180 (chromosome 14 open reading frame 180) | SID315464737 | -1.03 | inactive |
| C14orf180 (chromosome 14 open reading frame 180) | SID315464737 | -0.74 | inactive |
| C14orf180 (chromosome 14 open reading frame 180) | SID315464737 | -1.22 | inactive |
| C14orf180 (chromosome 14 open reading frame 180) | SID315464737 | -0.87 | inactive |
| LINC02913 (long independently transcribed non-coding RNA 2913) | SID315464864 | -0.89 | inactive |
| LINC02913 (long independently transcribed non-coding RNA 2913) | SID315464864 | -0.75 | inactive |
| LINC02913 (long independently transcribed non-coding RNA 2913) | SID315464864 | -1.01 | inactive |
| LINC02913 (long independently transcribed non-coding RNA 2913) | SID315464864 | -0.91 | inactive |
| ADGRA2 (adhesion G protein-coupled receptor A2) | SID315455580 | 0.4 | inactive |
| ADGRA2 (adhesion G protein-coupled receptor A2) | SID315455580 | 0.74 | inactive |
| ADGRA2 (adhesion G protein-coupled receptor A2) | SID315455580 | 0.22 | inactive |
| ADGRA2 (adhesion G protein-coupled receptor A2) | SID315455580 | 1.26 | inactive |
| TM4SF5 (transmembrane 4 L six family member 5) | SID315452987 | -0.58 | inactive |
| TM4SF5 (transmembrane 4 L six family member 5) | SID315452987 | -0.3 | inactive |
| TM4SF5 (transmembrane 4 L six family member 5) | SID315452987 | -0.49 | inactive |
| TM4SF5 (transmembrane 4 L six family member 5) | SID315452987 | -0.88 | inactive |
| TAC4 (tachykinin precursor 4) | SID315463479 | 2.87 | active |
| TAC4 (tachykinin precursor 4) | SID315463479 | 3.86 | active |
| TAC4 (tachykinin precursor 4) | SID315463479 | 2.06 | inactive |
| TAC4 (tachykinin precursor 4) | SID315463479 | 1.61 | inactive |
| EIF2D (eukaryotic translation initiation factor 2D) | SID315448446 | -0.43 | inactive |
| EIF2D (eukaryotic translation initiation factor 2D) | SID315448446 | -0.12 | inactive |
| EIF2D (eukaryotic translation initiation factor 2D) | SID315448446 | -0.37 | inactive |
| MON1B (MON1 vesicular trafficking associated B) | SID315454841 | 0.39 | inactive |
| MON1B (MON1 vesicular trafficking associated B) | SID315454841 | -0.4 | inactive |
| MON1B (MON1 vesicular trafficking associated B) | SID315454841 | 0.25 | inactive |
| MON1B (MON1 vesicular trafficking associated B) | SID315454841 | 1.17 | inactive |
| ZNF169 (zinc finger protein 169) | SID315462887 | -0.05 | inactive |
| ZNF169 (zinc finger protein 169) | SID315462887 | 3.36 | active |
| ZNF169 (zinc finger protein 169) | SID315462887 | 1.77 | inactive |
| ZNF169 (zinc finger protein 169) | SID315462887 | 0.34 | inactive |
| SMAD1 (SMAD family member 1) | SID315449841 | -1.54 | active |
| SMAD1 (SMAD family member 1) | SID315449841 | -0.93 | inactive |
| SMAD1 (SMAD family member 1) | SID315449841 | -1.56 | active |
| SMAD1 (SMAD family member 1) | SID315449841 | -1.17 | inactive |
| CYCS (cytochrome c, somatic) | SID315456975 | 1.09 | inactive |
| CYCS (cytochrome c, somatic) | SID315456975 | 12.4 | active |
| CYCS (cytochrome c, somatic) | SID315456975 | 0.56 | inactive |
| CYCS (cytochrome c, somatic) | SID315456975 | -0.05 | inactive |
| OR52N4 (olfactory receptor family 52 subfamily N member 4) | SID315464602 | -1.77 | active |
| OR52N4 (olfactory receptor family 52 subfamily N member 4) | SID315464602 | -1.43 | inactive |
| OR52N4 (olfactory receptor family 52 subfamily N member 4) | SID315464602 | -0.75 | inactive |
| OR52N4 (olfactory receptor family 52 subfamily N member 4) | SID315464602 | -0.28 | inactive |
| FNTA (farnesyltransferase, CAAX box, subunit alpha) | SID315448743 | 0.58 | inactive |
| FNTA (farnesyltransferase, CAAX box, subunit alpha) | SID315448743 | 1.07 | inactive |
| FNTA (farnesyltransferase, CAAX box, subunit alpha) | SID315448743 | -0.37 | inactive |
| FNTA (farnesyltransferase, CAAX box, subunit alpha) | SID315448743 | 1.62 | inactive |
| PIF1 (PIF1 5'-to-3' DNA helicase) | SID315459652 | 1.04 | inactive |
| PIF1 (PIF1 5'-to-3' DNA helicase) | SID315459652 | 1.46 | inactive |
| PIF1 (PIF1 5'-to-3' DNA helicase) | SID315459652 | 1.75 | inactive |
| PIF1 (PIF1 5'-to-3' DNA helicase) | SID315459652 | 1.02 | inactive |
| DTX3 (deltex E3 ubiquitin ligase 3) | SID315462963 | -0.55 | inactive |
| DTX3 (deltex E3 ubiquitin ligase 3) | SID315462963 | -0.29 | inactive |
| DTX3 (deltex E3 ubiquitin ligase 3) | SID315462963 | 3.32 | active |
| DTX3 (deltex E3 ubiquitin ligase 3) | SID315462963 | 0.26 | inactive |
| COX4I1 (cytochrome c oxidase subunit 4I1) | SID315448046 | -0.99 | inactive |
| COX4I1 (cytochrome c oxidase subunit 4I1) | SID315448046 | -0.55 | inactive |
| COX4I1 (cytochrome c oxidase subunit 4I1) | SID315448046 | -1.03 | inactive |
| COX4I1 (cytochrome c oxidase subunit 4I1) | SID315448046 | -0.33 | inactive |
| DYNLT5 (dynein light chain Tctex-type family member 5) | SID315463022 | -1.82 | active |
| DYNLT5 (dynein light chain Tctex-type family member 5) | SID315463022 | -1.46 | inactive |
| DYNLT5 (dynein light chain Tctex-type family member 5) | SID315463022 | -1.97 | active |
| DYNLT5 (dynein light chain Tctex-type family member 5) | SID315463022 | -2.07 | active |
| RYK (receptor like tyrosine kinase) | SID315451263 | -0.48 | inactive |
| RYK (receptor like tyrosine kinase) | SID315451263 | -0.03 | inactive |
| RYK (receptor like tyrosine kinase) | SID315451263 | -0.65 | inactive |
| RYK (receptor like tyrosine kinase) | SID315451263 | 0.66 | inactive |
| GNA14 (G protein subunit alpha 14) | SID315453435 | -0.7 | inactive |
| GNA14 (G protein subunit alpha 14) | SID315453435 | -0.29 | inactive |
| GNA14 (G protein subunit alpha 14) | SID315453435 | 0.2 | inactive |
| GNA14 (G protein subunit alpha 14) | SID315453435 | -0.35 | inactive |
| FN3K (fructosamine 3 kinase) | SID315458839 | 0.25 | inactive |
| FN3K (fructosamine 3 kinase) | SID315458839 | 0.02 | inactive |
| FN3K (fructosamine 3 kinase) | SID315458839 | -0.28 | inactive |
| FN3K (fructosamine 3 kinase) | SID315458839 | 1.22 | inactive |
| PTPRB (protein tyrosine phosphatase receptor type B) | SID315450963 | -0.16 | inactive |
| PTPRB (protein tyrosine phosphatase receptor type B) | SID315450963 | 0.15 | inactive |
| PTPRB (protein tyrosine phosphatase receptor type B) | SID315450963 | 1.81 | inactive |
| PTPRB (protein tyrosine phosphatase receptor type B) | SID315450963 | -0.27 | inactive |
| PAQR3 (progestin and adipoQ receptor family member 3) | SID315462537 | 0.84 | inactive |
| PAQR3 (progestin and adipoQ receptor family member 3) | SID315462537 | 1.93 | inactive |
| PAQR3 (progestin and adipoQ receptor family member 3) | SID315462537 | 0.56 | inactive |
| PAQR3 (progestin and adipoQ receptor family member 3) | SID315462537 | 1.9 | inactive |
| CDH22 (cadherin 22) | SID315458914 | -0.28 | inactive |
| CDH22 (cadherin 22) | SID315458914 | 0.69 | inactive |
| CDH22 (cadherin 22) | SID315458914 | -0.01 | inactive |
| CDH22 (cadherin 22) | SID315458914 | 0.44 | inactive |
| NF2 (NF2, moesin-ezrin-radixin like (MERLIN) tumor suppressor) | SID315450219 | 0.86 | inactive |
| NF2 (NF2, moesin-ezrin-radixin like (MERLIN) tumor suppressor) | SID315450219 | 0.71 | inactive |
| NF2 (NF2, moesin-ezrin-radixin like (MERLIN) tumor suppressor) | SID315450219 | 0.39 | inactive |
| NF2 (NF2, moesin-ezrin-radixin like (MERLIN) tumor suppressor) | SID315450219 | -0.69 | inactive |
| UXS1 (UDP-glucuronate decarboxylase 1) | SID315459667 | 1.77 | inactive |
| UXS1 (UDP-glucuronate decarboxylase 1) | SID315459667 | 0.02 | inactive |
| UXS1 (UDP-glucuronate decarboxylase 1) | SID315459667 | 2.19 | inactive |
| UXS1 (UDP-glucuronate decarboxylase 1) | SID315459667 | 0.38 | inactive |
| RGMB (repulsive guidance molecule BMP co-receptor b) | SID315463873 | 0.37 | inactive |
| RGMB (repulsive guidance molecule BMP co-receptor b) | SID315463873 | 0.49 | inactive |
| RGMB (repulsive guidance molecule BMP co-receptor b) | SID315463873 | -0.99 | inactive |
| RGMB (repulsive guidance molecule BMP co-receptor b) | SID315463873 | -0.21 | inactive |
| TOMM22 (translocase of outer mitochondrial membrane 22) | SID315458213 | 1.47 | inactive |
| TOMM22 (translocase of outer mitochondrial membrane 22) | SID315458213 | -0.18 | inactive |
| TOMM22 (translocase of outer mitochondrial membrane 22) | SID315458213 | 2.11 | inactive |
| TOMM22 (translocase of outer mitochondrial membrane 22) | SID315458213 | 0.9 | inactive |
| EED (embryonic ectoderm development) | SID315452776 | 1.31 | inactive |
| EED (embryonic ectoderm development) | SID315452776 | 0.97 | inactive |
| EED (embryonic ectoderm development) | SID315452776 | 1.17 | inactive |
| EED (embryonic ectoderm development) | SID315452776 | 1.18 | inactive |
| SLC32A1 | SID315462113 | -0.7 | inactive |
| SLC32A1 | SID315462113 | -0.3 | inactive |
| SLC32A1 | SID315462113 | -0.06 | inactive |
| SLC32A1 | SID315462113 | -1 | inactive |
| RPH3AL (rabphilin 3A like (without C2 domains)) | SID315453335 | -1.06 | inactive |
| RPH3AL (rabphilin 3A like (without C2 domains)) | SID315453335 | -0.64 | inactive |
| RPH3AL (rabphilin 3A like (without C2 domains)) | SID315453335 | -1.24 | inactive |
| RPH3AL (rabphilin 3A like (without C2 domains)) | SID315453335 | -0.56 | inactive |
| MIS12 (MIS12 kinetochore complex component) | SID315459149 | -1.23 | inactive |
| MIS12 (MIS12 kinetochore complex component) | SID315459149 | -1.3 | inactive |
| MIS12 (MIS12 kinetochore complex component) | SID315459149 | -1.16 | inactive |
| MIS12 (MIS12 kinetochore complex component) | SID315459149 | -0.8 | inactive |
| EPS8L1 (EPS8 signaling adaptor L1) | SID315457223 | -0.44 | inactive |
| EPS8L1 (EPS8 signaling adaptor L1) | SID315457223 | 1.19 | inactive |
| EPS8L1 (EPS8 signaling adaptor L1) | SID315457223 | 1.36 | inactive |
| EPS8L1 (EPS8 signaling adaptor L1) | SID315457223 | 0.1 | inactive |
| BOLA1 (bolA family member 1) | SID315456415 | -0.06 | inactive |
| BOLA1 (bolA family member 1) | SID315456415 | -1.13 | inactive |
| BOLA1 (bolA family member 1) | SID315456415 | 0.62 | inactive |
| BOLA1 (bolA family member 1) | SID315456415 | 0.96 | inactive |
| TMEM14B (transmembrane protein 14B) | SID315459961 | -0.64 | inactive |
| TMEM14B (transmembrane protein 14B) | SID315459961 | -1.02 | inactive |
| TMEM14B (transmembrane protein 14B) | SID315459961 | -0.65 | inactive |
